Reference: the RNAGym collection of RNA variant scans (doi:10.1126/science.aae0568)
Variants at the background level are over-represented here.

B1: tRNA (parent)
chain: GUUCCGUUGGCGUAAUGGUAACGCGUCUCCCUCCUAAGGAGAAGACUGCGGGUUCGAGUCCCGUACGGAACG

Variants of: B1
Assay: yeast fitness relative to wild type (ratio to wild type); higher = fitter; tRNA-Arg(CCU), competitive growth, 37 C, YPD
How it was run: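 Genotype frequency changes were the basis for Darwinian fitness relative to wild type. The frequencies came from 100-nucleotide paired-end sequencing of gene amplicons from the start population and each end population of pooled yeast strains with tRNA-Arg(CCU) gene variants at the native locus. Competition ran in YPD at 37°C for 24 hours in six replicates, genotypes needed ≥ 100 starting reads, and estimates < 0.5 were set to 0.5.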

| Variant | yeast fitness |
| --- | --- |
| C34A U47C G51A A65G | ≤ 0.5 |
| C27G C33A A40U C46U | ≤ 0.5 |
| C5A C24U U35C C66U | 0.549 |
| U19A C49G G56U | 0.558 |
| U7C G10A C30G A37C G52A | ≤ 0.5 |
| A15C C61U | 0.713 |
| C27U A36U U54A C61A A65U A69U | ≤ 0.5 |
| A14G G18A G44A C62U | ≤ 0.5 |
| G17A C22A C31A C33A C49A | 0.573 |
| C4U C5G A15U C22G C30U | ≤ 0.5 |
| U59C C61A C62U | ≤ 0.5 |
| C11G A15G G67C | ≤ 0.5 |
| G17C G25C C29G A36U G39A C46U | ≤ 0.5 |
| G18C A21G C30U A36G G50A | ≤ 0.5 |
| G41A C55G C66U | ≤ 0.5 |
| A45C C49A A57U | ≤ 0.5 |
| C4G G17C A37U | ≤ 0.5 |
| C5A U13A U35A U59C | 0.661 |
| C22U C24A G56C U59G | ≤ 0.5 |
| U16C C29G A42G | ≤ 0.5 |
| C11U U13A G25A U28A C31A A43C C60G C61G C62U | 0.581 |
| G18A C49U G51C A65G | ≤ 0.5 |
| A14C C27G U32C C46G A65G | ≤ 0.5 |
| C5U U28A C62G G63A | ≤ 0.5 |

| Variant | yeast fitness |
| --- | --- |
| A21U G56C G63A U64C G67C | ≤ 0.5 |
| C4U U19G G50A G51C C55G C61U | ≤ 0.5 |
| U16G G23A A40U C66G | ≤ 0.5 |
| U8G A43U C46G G67C | ≤ 0.5 |
| G6A C30G A45U | ≤ 0.5 |
| G12A C46G | 1 |
| G6C C30G C66U | ≤ 0.5 |
| U8A U32G A36C U47G | ≤ 0.5 |
| C31G C55G A57C | ≤ 0.5 |
| U2A U8G C22U U32C C33G G38A | ≤ 0.5 |
| A14C A36G G41A G48C U59C A70C | ≤ 0.5 |
| A15U C30U | 0.859 |
| C24G A36G U54C U64C | ≤ 0.5 |
| C11G G58C C62U | ≤ 0.5 |
| G10A C33G A37G A70G | ≤ 0.5 |
| C30U U32C C55A G56A G67A | ≤ 0.5 |
| C22A C24A A43U | ≤ 0.5 |
| C11A A20U C24U U26G C27U A36C A45U C55G | ≤ 0.5 |
| U8A C29U C33U A69G | ≤ 0.5 |
| G51A C60G A65U | ≤ 0.5 |
| U13A C29A C31G A65U | ≤ 0.5 |
| C5U U28C U32C G39A C60U C61G | ≤ 0.5 |
| C24U A45G C46G C55G A70C | ≤ 0.5 |
| C4A C24G | 0.714 |

| Variant | yeast fitness |
| --- | --- |
| C4A C11A C33A | ≤ 0.5 |
| A21C C46G C49G C62U | ≤ 0.5 |
| C4G C5U C29A C46G | ≤ 0.5 |
| C11A C33G C61A | ≤ 0.5 |
| C11U U16C U19C | 0.929 |
| U3A A15U C22G | ≤ 0.5 |
| G6C G25A C60G G68C | ≤ 0.5 |
| G18A A21C C33G A37U U64G | ≤ 0.5 |
| C24G A36C | 0.531 |
| A36U A42C A43G U64C A70C | 0.559 |
| A20C C34G C66U | ≤ 0.5 |
| U28C A42C C60U | 0.589 |
| A36G G38C C62A G68A | ≤ 0.5 |
| C5U C24A C30U C62U | ≤ 0.5 |
| A21U C29G C49G G56A A70U | ≤ 0.5 |
| G10A A15C C34A A57U C62U A69U | ≤ 0.5 |
| U7A G10C C22U | ≤ 0.5 |
| U13C C22G A36U | ≤ 0.5 |
| C4U U47A G51C A70U | ≤ 0.5 |
| C5U G58A C61U A70G | 0.797 |
| G25C U32G G38A C61U A70C | ≤ 0.5 |
| C4U C11A G39A G51A G67C | ≤ 0.5 |
| C24U C33U A69C | ≤ 0.5 |
| C31U C34A C49U U54C A65C | ≤ 0.5 |

| Variant | yeast fitness |
| --- | --- |
| C24G A36U A37C | ≤ 0.5 |
| A20G C24U C33U A43C C55A U59C | 0.539 |
| G9C U13A G25A A40C | ≤ 0.5 |
| C55G A57G G63C | ≤ 0.5 |
| U13C A15G C62A | ≤ 0.5 |
| U3A C29A G68C A70C | ≤ 0.5 |
| A20G C27G U47G C62U A65U | ≤ 0.5 |
| C24G A40C A43C C46U G68C A69U | ≤ 0.5 |
| U2C U28A A70C | ≤ 0.5 |
| U8C G44C C49A | ≤ 0.5 |
| G10C C29G A65C | ≤ 0.5 |
| A15U A20C C46G G50C C61G | 0.604 |
| C5G G17C G23C A70C | ≤ 0.5 |
| G6C C22A C31G A65C | ≤ 0.5 |
| C11U A21G A40C A42U C46U C49U G51A A65C | ≤ 0.5 |
| C34G U53G | ≤ 0.5 |
| U7G A65G | 1.03 |
| A14U G25A C30G C62G | ≤ 0.5 |
| A20U C29U C30U C49G C55A | ≤ 0.5 |
| C5U C11G A36U | ≤ 0.5 |
| C5A G10C G56C | ≤ 0.5 |
| C4G G17C C33A G56C A70C | 0.542 |
| C29A U32C C33U A37G U59A U64C C66U | ≤ 0.5 |
| G18A A37G C61U | ≤ 0.5 |

| Variant | yeast fitness |
| --- | --- |
| C11A U54G G68A | ≤ 0.5 |
| U3A C27G C31U C33U A42C C66U A70C | ≤ 0.5 |
| G6C A21U C61G A69C | ≤ 0.5 |
| C34A A57G | 0.715 |
| C24A A37G A57G A65G | ≤ 0.5 |
| U2C C24U A70C | 0.708 |
| C5U A42U A57C C61U A65U | ≤ 0.5 |
| G10C G39C G51A | ≤ 0.5 |
| A20G C29G A40U | ≤ 0.5 |
| C24A A36U C55A C66U | ≤ 0.5 |
| C5U A14U G56A | ≤ 0.5 |
| U3C G9A C24U C55G | ≤ 0.5 |
| C5U G23A C62A | ≤ 0.5 |
| A15G G23A G48A | 0.675 |
| C5A U16G U54A | ≤ 0.5 |
| A65C A69C A70G | 0.554 |
| A14C U26A G68A | ≤ 0.5 |
| C27A C30G G41C C61G C62U A69U | 0.557 |
| G52C C62U | 0.559 |
| U28A U64C | 0.834 |
| U2C A21G C33G G50A | ≤ 0.5 |
| U3C U8G A43U C62G C66A A69C | ≤ 0.5 |
| U3G C4U G44C | ≤ 0.5 |
| A21U C34U C49U A65U | ≤ 0.5 |

| Variant | yeast fitness |
| --- | --- |
| C5U C27U G41A | 0.573 |
| C27U C46U C55G | ≤ 0.5 |
| G6A C22G C24U U47A A70C | ≤ 0.5 |
| A21U C22U U32A G39A G63A | ≤ 0.5 |
| C5G A21U | 0.731 |
| C33U A36U G41C | ≤ 0.5 |
| C4U A21G C46A G68U | 0.574 |
| G12A G41U | 0.819 |
| C31A G38A | 0.792 |
| C5A U13A G39C U47C C60A C61G A69U | ≤ 0.5 |
| G6A A15G C24U C61G C66U A69U | ≤ 0.5 |
| C24U G67U | 0.869 |
| G39C A42G | 0.653 |
| A42G G51A | 0.822 |
| C11U U19A G38A C60G | ≤ 0.5 |
| C55G G63U A69C | ≤ 0.5 |
| C22U A37G A43C C55G G68A | ≤ 0.5 |
| G10C U13C U53C A65C | ≤ 0.5 |
| G17C A20U C66A | ≤ 0.5 |
| C5A G41C G68A | ≤ 0.5 |
| U28A C29U A45C G51C A57C | ≤ 0.5 |
| C5A U35C A36U | 0.57 |
| C24U C33U C46U C49A C62U | ≤ 0.5 |
| G18C G38A A43U A45G A57G U59C | ≤ 0.5 |

| Variant | yeast fitness |
| --- | --- |
| U3G C11G U13A A20G C30G | ≤ 0.5 |
| C29G G44C C49G A57C C61U | ≤ 0.5 |
| C11G C30U U35A U53G C62U A70C | ≤ 0.5 |
| C30A A36C G38A C61U | ≤ 0.5 |
| C5G C30U G50C | ≤ 0.5 |
| C24A G39C U47C U59C | ≤ 0.5 |
| C34A C46U | 0.615 |
| C5A A15C C27U C30U U32G U35A A37C A57U | ≤ 0.5 |
| C5U A15U C30G C33G A40G A43U U54G | ≤ 0.5 |
| C24A G48C U54G C55U C66U | ≤ 0.5 |
| U7A C22U G39C C66U | ≤ 0.5 |
| A36U A45U C46A C66U A69U | ≤ 0.5 |
| A15G A20C U54A | ≤ 0.5 |
| C5U C22U C24A C55A A65G | ≤ 0.5 |
| C11A G12A C66U | ≤ 0.5 |
| C4G G41A A45U G56C | ≤ 0.5 |
| A15C C29U A69C | ≤ 0.5 |
| C4G C34A A40G | ≤ 0.5 |
| U8C A14C U19G C31G C33U A42G U64C A65G | ≤ 0.5 |
| G9C C30G G50U | ≤ 0.5 |
| G10A G25C C49G C66G | ≤ 0.5 |
| C11A A40C A42U C49G C66G | ≤ 0.5 |
| G9A U16G A42C | 0.955 |
